In test [1] the target is HMGB1 A-box with R10 mutated to alanine, purified (UniProt P09429). The experiment in a line: ITC; purified HMGB1 A-box in the cell titrated with free C-tail (15) peptide; 100 mM Hepes, 50 mM NaCl; with or without 0.2 mM F1,6P; single site binding model; both purified. (In general: Isothermal titration calorimetry measures the heat released or taken up as one component is titrated into another.)

By UniProt entry, the sequences of proteins in these tests, tags left out. Where a name states a change or a piece, a line headed by the entry shows the natural chain unless it says otherwise.
UniProt P09429: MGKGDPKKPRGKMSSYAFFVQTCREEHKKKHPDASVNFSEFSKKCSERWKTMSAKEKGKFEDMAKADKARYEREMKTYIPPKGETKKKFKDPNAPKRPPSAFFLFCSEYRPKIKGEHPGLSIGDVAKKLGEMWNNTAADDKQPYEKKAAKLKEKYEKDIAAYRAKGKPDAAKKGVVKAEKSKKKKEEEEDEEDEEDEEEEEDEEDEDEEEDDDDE

Test [2] concerns the target HMGB1 A-box with K8 mutated to alanine, purified (UniProt P09429). The test is described as above.

These are yes or no findings as the source states them, for the method shown. Binding can be weak; no strength is given.

B1: C15 peptide (HMGB1 aa200–214) (peptide, UniProt P09429 200-214, looked up)
peptide: EEDEEDEDEEEDDDD
notes: HMGB1 acidic C-tail, aa200-214; also called C-tail (15) peptide; C-tail (15); source: synthetic peptide
As for B1, the binding result in test [1] and in test [2] was “binds” throughout.

Source of the values: paper PMC9982576, “Nuclear Fructose‐1,6‐Bisphosphate Inhibits Tumor Growth and Sensitizes Chemotherapy by Targeting HMGB1” (Advanced Science, 2023).
